Assay results as given in patent US20230210797A1, “PREVENTING AND TREATING HYPOGLYCEMIA” (DIAMYD MEDICAL AB, priority 2019, published 2023).

Assay: Hypoglycemic clamp: plasma glucose levels
Format: in vivo, human
Conditions: C-peptide undetectable, n=5
[1] = Visit 5, 200 mg GABA per day, event 2.5 mmol/L
[2] = Visit 5, 200 mg GABA per day, event 5.5 mmol/L
[3] = Visit 5, 200 mg GABA per day, event Baseline
[4] = Visit 5, 200 mg GABA per day, event Diff 2.5-5.5 mmol/L
[5] = Visit 7, 600 mg GABA per day, event 2.5 mmol/L
[6] = Visit 7, 600 mg GABA per day, event 5.5 mmol/L
[7] = Visit 7, 600 mg GABA per day, event Baseline
[8] = Visit 7, 600 mg GABA per day, event Diff 2.5-5.5 mmol/L
[9] = Visit 9, 1200 mg GABA per day, event 2.5 mmol/L
[10] = Visit 9, 1200 mg GABA per day, event 5.5 mmol/L
[11] = Visit 9, 1200 mg GABA per day, event Baseline
[12] = Visit 9, 1200 mg GABA per day, event Diff 2.5-5.5 mmol/L

NCCCC(=O)O [GABA, Gamma-amino butyric acid]
Glucose levels, change from baseline, Mean [1]: −0.16 mmol(L
Glucose levels, change from baseline, Median [1]: −0.20 mmol(L
Glucose levels, observed value, Mean [1]: 2.52 mmol(L
Glucose levels, observed value, Median [1]: 2.60 mmol(L
Glucose levels, change from baseline, Mean [2]: −0.36 mmol(L
Glucose levels, change from baseline, Median [2]: −0.10 mmol(L
Glucose levels, observed value, Mean [2]: 5.18 mmol(L
Glucose levels, observed value, Median [2]: 5.30 mmol(L
Glucose levels, change from baseline, Mean [3]: −0.28 mmol(L
Glucose levels, change from baseline, Median [3]: −0.40 mmol(L
Glucose levels, change from baseline, Mean [4]: 0.20 mmol(L
Glucose levels, change from baseline, Median [4]: 0.10 mmol(L
Glucose levels, observed value, Mean [4]: −2.66 mmol(L
Glucose levels, observed value, Median [4]: −2.90 mmol(L
Glucose levels, change from baseline, Mean [5]: 0.00 mmol(L
Glucose levels, change from baseline, Median [5]: 0.00 mmol(L
Glucose levels, observed value, Mean [5]: 2.68 mmol(L
Glucose levels, observed value, Median [5]: 2.70 mmol(L
Glucose levels, change from baseline, Mean [6]: 0.22 mmol(L
Glucose levels, change from baseline, Median [6]: 0.00 mmol(L
Glucose levels, observed value, Mean [6]: 5.76 mmol(L
Glucose levels, observed value, Median [6]: 5.80 mmol(L
Glucose levels, change from baseline, Mean [7]: 0.40 mmol(L
Glucose levels, change from baseline, Median [7]: 1.70 mmol(L
Glucose levels, change from baseline, Mean [8]: −0.22 mmol(L
Glucose levels, change from baseline, Median [8]: −0.10 mmol(L
Glucose levels, observed value, Mean [8]: −3.08 mmol(L
Glucose levels, observed value, Median [8]: −3.20 mmol(L
Glucose levels, change from baseline, Mean [9]: 0.02 mmol(L
Glucose levels, change from baseline, Median [9]: 0.00 mmol(L
Glucose levels, observed value, Mean [9]: 2.70 mmol(L
Glucose levels, observed value, Median [9]: 2.70 mmol(L
Glucose levels, change from baseline, Mean [10]: −0.24 mmol(L
Glucose levels, change from baseline, Median [10]: −0.40 mmol(L
Glucose levels, observed value, Mean [10]: 5.30 mmol(L
Glucose levels, observed value, Median [10]: 5.30 mmol(L
Glucose levels, change from baseline, Mean [11]: 0.00 mmol(L
Glucose levels, change from baseline, Median [11]: 1.30 mmol(L
Glucose levels, change from baseline, Mean [12]: 0.26 mmol(L
Glucose levels, change from baseline, Median [12]: 0.60 mmol(L
Glucose levels, observed value, Mean [12]: −2.60 mmol(L
Glucose levels, observed value, Median [12]: −2.60 mmol(L
